The list shows a part of the results. Many values rest on one well or one pass, so single values are uncertain.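 Cells were imaged in 1,536-well plates, and nuclei stained with an antibody against cleaved PARP were counted against all DNA-stained nuclei to give the apoptosis fraction. Screening doses were chosen to leave most cells alive, and resting and induced cleaved-PARP levels differ strongly between cell lines.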
What follows are compounds tested on IST-MEL1 (assay: cleaved PARP positive nuclei fraction relative to DMSO control; melanoma cells; higher = more apoptosis). Conditions: library dose: low library concentration; 72 h.

Q: `O=C(Nc1ccccc1)c1cc([N+](=O)[O-])ccc1Cl` + O=S(=O)(c1ccccc1)N(CC(F)(F)F)c1ccc(C(O)(C(F)(F)F)C(F)(F)F)cc1 [T0901317] (first compound 2 µM, partner dose 1.4 µM) was tested. Which “cleaved PARP positive nuclei fraction” value did it give?
A: 130%

Q: With `CN(C)S(=O)(=O)c1ccc2c(c1)/C(=C/c1cc3c([nH]1)CCCC3)C(=O)N2` + NCC(=O)Nc1ccc(-n2nc(C(F)(F)F)cc2-c2ccc3c(ccc4ccccc43)c2)cc1 [OSU03012] (first compound 0.4 µM, partner dose 1 µM) as the compound, how does the “cleaved PARP positive nuclei fraction” value read?
A: 56.9%

Q: With `N#Cc1c(O)c2c(-c3ccc(-c4ccccc4O)cc3)csc2[nH]c1=O` + O=S(=O)(c1ccccc1)N(CC(F)(F)F)c1ccc(C(O)(C(F)(F)F)C(F)(F)F)cc1 [T0901317] (first compound 2 µM, partner dose 1.4 µM) as the compound, how does the “cleaved PARP positive nuclei fraction” value read?
A: 185%

Q: `NCC(=O)Nc1ccc(-n2nc(C(F)(F)F)cc2-c2ccc3c(ccc4ccccc43)c2)cc1` + COc1cc2c(Oc3ccc4[nH]c(C)cc4c3F)ncnc2cc1OCCCN1CCCC1 [cediranib] (first compound 1 µM, partner dose 0.4 µM) was tested. Which “cleaved PARP positive nuclei fraction” value did it give?
A: 48.9%

Q: `CN(NC(=O)CC(=O)NN(C)C(=S)c1ccccc1)C(=S)c1ccccc1` + c1cc(-c2cnn3cc(-c4ccc(OCCN5CCCCC5)cc4)cnc23)ccn1 [Dorsomorphin] (first compound 0.006 µM, partner dose 0.4 µM) was tested. Which “cleaved PARP positive nuclei fraction” value did it give?
A: 122%

Q: With `COc1cc2c(Oc3ccc4[nH]c(C)cc4c3F)ncnc2cc1OCCCN1CCCC1` [cediranib] + c1cc(-c2cnn3cc(-c4ccc(OCCN5CCCCC5)cc4)cnc23)ccn1 [Dorsomorphin] (first compound 0.4 µM, partner dose 0.4 µM) as the compound, how does the “cleaved PARP positive nuclei fraction” value read?
A: 63.9%

Q: Which “cleaved PARP positive nuclei fraction” value does the source give for `CN(NC(=O)CC(=O)NN(C)C(=S)c1ccccc1)C(=S)c1ccccc1` + N#Cc1c(O)c2c(-c3ccc(-c4ccccc4O)cc3)csc2[nH]c1=O [A769662] (first compound 0.006 µM, partner dose 2 µM) here?
A: 68.2%

Q: For `O=C(O)c1ccc(-c2c[nH]c3ncc(-c4ccccc4)cc23)cc1C1CCCC1` + CN(NC(=O)CC(=O)NN(C)C(=S)c1ccccc1)C(=S)c1ccccc1 [STA4783] (first compound 0.16 µM, partner dose 0.006 µM), which “cleaved PARP positive nuclei fraction” value is on record?
A: 242%

Q: How did the “cleaved PARP positive nuclei fraction” value turn out when `CN(C)S(=O)(=O)c1ccc2c(c1)/C(=C/c1cc3c([nH]1)CCCC3)C(=O)N2` + CC(C)CCN1c2nc(Nc3cc(F)c(O)c(F)c3)ncc2N(C)C(=O)C1C [BID1870] (first compound 0.4 µM, partner dose 0.2 µM) was run?
A: 42.1%

Q: Which “cleaved PARP positive nuclei fraction” value does the source give for `CN(NC(=O)CC(=O)NN(C)C(=S)c1ccccc1)C(=S)c1ccccc1` + COc1cc2c(Oc3ccc4[nH]c(C)cc4c3F)ncnc2cc1OCCCN1CCCC1 [cediranib] (first compound 0.006 µM, partner dose 0.4 µM) here?
A: 113%

Q: How did the “cleaved PARP positive nuclei fraction” value turn out when `COC(=O)c1sccc1S(=O)(=O)Nc1ccc(Nc2ccccc2)cc1OC` + COc1ccc(-c2ccc3c(N4CCOCC4)nc(N4C[C@@H](C)O[C@@H](C)C4)nc3n2)cc1CO [KU0063794] (first compound 1 µM, partner dose 0.02 µM) was run?
A: 90.8%

Q: `COc1ccc2c(c1)CCC1C2CCC2(C)C(NCCCCCCN3C(=O)C=CC3=O)CCC12` (stereo not drawn) + COc1cc(N2CCC(N3CCN(C)CC3)CC2)ccc1Nc1ncc(Cl)c(Nc2ccccc2S(=O)(=O)C(C)C)n1 [NVP-TAE684] (first compound 0.4 µM, partner dose 0.08 µM) was tested. Which “cleaved PARP positive nuclei fraction” value did it give?
A: 102%

Q: For `O=C(O)C(=O)Nc1sc2c(c1C(=O)O)CCNC2` + COc1cc(N2CCC(N3CCN(C)CC3)CC2)ccc1Nc1ncc(Cl)c(Nc2ccccc2S(=O)(=O)C(C)C)n1 [NVP-TAE684] (first compound 1.66667 µM, partner dose 0.08 µM), which “cleaved PARP positive nuclei fraction” value is on record?
A: 265%

Q: How did the “cleaved PARP positive nuclei fraction” value turn out when `CCCCCCCCCCCC1=C(O)C(=O)C=C(O)C1=O` [Embelin] + O=c1cc(-c2cccc3c2Sc2ccccc2S3)oc(N2CCOCC2)c1 [KU55933] (first compound 1.2 µM, partner dose 1 µM) was run?
A: 45.2%

Q: With `COc1cc2ncnc(Nc3ccc(Oc4ccccc4)cc3)c2cc1OC` + CC(C)CCN1c2nc(Nc3cc(F)c(O)c(F)c3)ncc2N(C)C(=O)C1C [BID1870] (first compound 2 µM, partner dose 0.2 µM) as the compound, how does the “cleaved PARP positive nuclei fraction” value read?
A: 82.5%

Q: Which “cleaved PARP positive nuclei fraction” value does the source give for `N#Cc1c(O)c2c(-c3ccc(-c4ccccc4O)cc3)csc2[nH]c1=O` + COC(=O)c1sccc1S(=O)(=O)Nc1ccc(Nc2ccccc2)cc1OC [GSK0660] (first compound 2 µM, partner dose 1 µM) here?
A: 79.1%

Q: `NCC(=O)Nc1ccc(-n2nc(C(F)(F)F)cc2-c2ccc3c(ccc4ccccc43)c2)cc1` + CN(NC(=O)CC(=O)NN(C)C(=S)c1ccccc1)C(=S)c1ccccc1 [STA4783] (first compound 1 µM, partner dose 0.006 µM) was tested. Which “cleaved PARP positive nuclei fraction” value did it give?
A: 95.6%

Q: Which “cleaved PARP positive nuclei fraction” value does the source give for `NCC(=O)Nc1ccc(-n2nc(C(F)(F)F)cc2-c2ccc3c(ccc4ccccc43)c2)cc1` + COc1cc(N2CCC(N3CCN(C)CC3)CC2)ccc1Nc1ncc(Cl)c(Nc2ccccc2S(=O)(=O)C(C)C)n1 [NVP-TAE684] (first compound 1 µM, partner dose 0.08 µM) here?
A: 188%

Q: Which “cleaved PARP positive nuclei fraction” value does the source give for `CCc1ccc(CCOc2ccc(CC3SC(=O)NC3=O)cc2)nc1` (stereo not drawn) [pioglitazone] + O=C(O)C(=O)Nc1sc2c(c1C(=O)O)CCNC2 [TCS401] (first compound 2 µM, partner dose 1.66667 µM) here?
A: 59.1%

Q: With `CCN(CC)CCCCNc1ncc2cc(-c3cc(OC)cc(OC)c3)c(NC(=O)NC(C)(C)C)nc2n1` + Oc1cc(-c2nc(-c3ccccc3)[nH]c2-c2ccncc2)ccc1Cl [L779450] (first compound 0.1 µM, partner dose 0.2 µM) as the compound, how does the “cleaved PARP positive nuclei fraction” value read?
A: 187%

Q: With `O=C1NC(=O)/C(=C/c2ccc(-c3ccc(F)cc3O)o2)S1` + Cc1cc([N+](=O)[O-])ccc1NS(=O)(=O)c1cc(Cl)ccc1Cl [FH535] (first compound 1 µM, partner dose 1 µM) as the compound, how does the “cleaved PARP positive nuclei fraction” value read?
A: 195%

Q: How did the “cleaved PARP positive nuclei fraction” value turn out when `c1cc(-c2cnn3cc(-c4ccc(OCCN5CCCCC5)cc4)cnc23)ccn1` [Dorsomorphin] + CCCCCCCCCCCC1=C(O)C(=O)C=C(O)C1=O [Embelin] (first compound 0.4 µM, partner dose 1.2 µM) was run?
A: 169%

Q: Which “cleaved PARP positive nuclei fraction” value does the source give for `COC(=O)c1sccc1S(=O)(=O)Nc1ccc(Nc2ccccc2)cc1OC` + O=C(O)C(=O)Nc1sc2c(c1C(=O)O)CCNC2 [TCS401] (first compound 1 µM, partner dose 1.66667 µM) here?
A: 58%

Q: `O=C(Nc1ccccc1)c1cc([N+](=O)[O-])ccc1Cl` + COc1ccc(-c2ccc3c(N4CCOCC4)nc(N4C[C@@H](C)O[C@@H](C)C4)nc3n2)cc1CO [KU0063794] (first compound 2 µM, partner dose 0.02 µM) was tested. Which “cleaved PARP positive nuclei fraction” value did it give?
A: 69.2%

Q: `O=C(O)c1ccc(-c2c[nH]c3ncc(-c4ccccc4)cc23)cc1C1CCCC1` + COc1cc2c(Oc3ccc4[nH]c(C)cc4c3F)ncnc2cc1OCCCN1CCCC1 [cediranib] (first compound 0.16 µM, partner dose 0.4 µM) was tested. Which “cleaved PARP positive nuclei fraction” value did it give?
A: 158%

Q: How did the “cleaved PARP positive nuclei fraction” value turn out when `CN(C)S(=O)(=O)c1ccc2c(c1)/C(=C/c1cc3c([nH]1)CCCC3)C(=O)N2` + CN(NC(=O)CC(=O)NN(C)C(=S)c1ccccc1)C(=S)c1ccccc1 [STA4783] (first compound 0.4 µM, partner dose 0.006 µM) was run?
A: 658%

Q: With `O=C(O)c1ccc(-c2c[nH]c3ncc(-c4ccccc4)cc23)cc1C1CCCC1` + NCC(=O)Nc1ccc(-n2nc(C(F)(F)F)cc2-c2ccc3c(ccc4ccccc43)c2)cc1 [OSU03012] (first compound 0.16 µM, partner dose 1 µM) as the compound, how does the “cleaved PARP positive nuclei fraction” value read?
A: 112%

Q: How did the “cleaved PARP positive nuclei fraction” value turn out when `CN(C)S(=O)(=O)c1ccc2c(c1)/C(=C/c1cc3c([nH]1)CCCC3)C(=O)N2` + COc1cc2c(Oc3ccc4[nH]c(C)cc4c3F)ncnc2cc1OCCCN1CCCC1 [cediranib] (first compound 0.4 µM, partner dose 0.4 µM) was run?
A: 47%

Q: For `COC(=O)c1sccc1S(=O)(=O)Nc1ccc(Nc2ccccc2)cc1OC` + Oc1cc(-c2nc(-c3ccccc3)[nH]c2-c2ccncc2)ccc1Cl [L779450] (first compound 1 µM, partner dose 0.2 µM), which “cleaved PARP positive nuclei fraction” value is on record?
A: 84.5%

Q: How did the “cleaved PARP positive nuclei fraction” value turn out when `O=C1NC(=O)/C(=C/c2ccc(-c3ccc(F)cc3O)o2)S1` + CCCCCCCCCCCC1=C(O)C(=O)C=C(O)C1=O [Embelin] (first compound 1 µM, partner dose 1.2 µM) was run?
A: 79.3%

Q: With `COc1cc(N2CCC(N3CCN(C)CC3)CC2)ccc1Nc1ncc(Cl)c(Nc2ccccc2S(=O)(=O)C(C)C)n1` + CC(C)CCN1c2nc(Nc3cc(F)c(O)c(F)c3)ncc2N(C)C(=O)C1C [BID1870] (first compound 0.08 µM, partner dose 0.2 µM) as the compound, how does the “cleaved PARP positive nuclei fraction” value read?
A: 36.4%

Q: With `CN(C)S(=O)(=O)c1ccc2c(c1)/C(=C/c1cc3c([nH]1)CCCC3)C(=O)N2` + O=C(O)c1ccc(-c2c[nH]c3ncc(-c4ccccc4)cc23)cc1C1CCCC1 [GSK650394] (first compound 0.4 µM, partner dose 0.16 µM) as the compound, how does the “cleaved PARP positive nuclei fraction” value read?
A: 111%

Q: How did the “cleaved PARP positive nuclei fraction” value turn out when `COc1cc2ncnc(Nc3ccc(Oc4ccccc4)cc3)c2cc1OC` + O=C1NC(=O)/C(=C/c2ccc(-c3ccc(F)cc3O)o2)S1 [AS252424] (first compound 2 µM, partner dose 1 µM) was run?
A: 82.5%

Source: the supplement of paper PMC4604168 (melanoma cell lines)
